Experimental data: patent US20230303695A1
Results are given in words; binding and its absence hold for the method and conditions named. Some results given as binding are weak or reduced against the parent protein; the word gives no strength. For some of these results: Tags and fused reporters may be left off the sequences shown.

Chains of the proteins cited; added tags and fusions are not shown. Lines headed by an entry give the natural chain unless they say otherwise; changes in a name come on top. Residues count along the entry.
UniProt P26715: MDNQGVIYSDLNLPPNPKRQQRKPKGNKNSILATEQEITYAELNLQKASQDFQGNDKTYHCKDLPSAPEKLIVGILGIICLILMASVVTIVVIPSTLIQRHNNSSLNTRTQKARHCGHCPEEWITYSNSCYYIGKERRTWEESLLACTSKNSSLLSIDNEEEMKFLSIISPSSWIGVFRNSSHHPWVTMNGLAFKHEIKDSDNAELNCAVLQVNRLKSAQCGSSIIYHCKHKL
UniProt P43630: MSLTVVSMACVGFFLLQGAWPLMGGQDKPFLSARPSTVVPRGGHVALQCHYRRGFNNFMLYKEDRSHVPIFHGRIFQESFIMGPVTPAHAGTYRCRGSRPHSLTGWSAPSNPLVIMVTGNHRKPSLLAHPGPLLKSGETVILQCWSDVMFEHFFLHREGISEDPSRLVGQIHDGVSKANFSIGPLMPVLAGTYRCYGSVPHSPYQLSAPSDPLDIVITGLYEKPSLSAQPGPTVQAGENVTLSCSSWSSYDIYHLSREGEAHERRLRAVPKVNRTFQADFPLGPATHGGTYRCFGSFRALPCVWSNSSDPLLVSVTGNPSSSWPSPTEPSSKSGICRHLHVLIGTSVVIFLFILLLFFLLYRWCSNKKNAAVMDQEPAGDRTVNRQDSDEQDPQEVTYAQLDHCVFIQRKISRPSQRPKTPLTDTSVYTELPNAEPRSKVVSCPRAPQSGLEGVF
KIR3DL2 expressed on cells: residues 22-455 of P43630
KIR3DL2 D12 construct on CT26 cells: residues 22-221 of P43630
UniProt P43629: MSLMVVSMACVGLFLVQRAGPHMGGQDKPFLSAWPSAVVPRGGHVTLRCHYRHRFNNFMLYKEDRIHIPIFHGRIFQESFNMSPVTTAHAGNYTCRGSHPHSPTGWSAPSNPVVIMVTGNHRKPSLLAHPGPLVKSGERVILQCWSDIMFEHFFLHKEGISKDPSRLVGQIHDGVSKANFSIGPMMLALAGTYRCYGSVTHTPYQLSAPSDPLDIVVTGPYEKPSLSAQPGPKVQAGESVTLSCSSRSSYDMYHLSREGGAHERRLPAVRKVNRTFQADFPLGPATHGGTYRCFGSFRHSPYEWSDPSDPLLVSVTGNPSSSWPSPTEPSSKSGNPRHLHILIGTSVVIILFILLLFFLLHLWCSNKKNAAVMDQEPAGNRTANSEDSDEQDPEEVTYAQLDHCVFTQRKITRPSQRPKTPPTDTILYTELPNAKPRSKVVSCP
KIR3DL1 expressed on CT26 cells: residues 22-444 of P43629
KIR3DL1 D12 construct on CT26 cells: residues 22-221 of P43629

Experiments:
[1] = molecular target: KLRC1/KLRD1 heterodimer expressed on CT26 cells (UniProt P26715); test: FACS, IGSF8-hFc on CT26 cells, MFI normalized to Thy1.1
[2] = molecular target: KLRC1/KLRD1 heterodimer expressed on CT26 cells (UniProt P26715); test: FACS, hFc-tagged proteins on CT26 cells expressing the receptor, MFI normalized to Thy1.1
[3] = molecular target: KIR3DL2 D12 construct on CT26 cells (human) (UniProt P43630); test: FACS, biotin-labelled IGSF8 on CT26 cells
[4] = molecular target: KIR3DL1 D12 construct on CT26 cells (human) (UniProt P43629); test: FACS, biotin-labelled IGSF8 on CT26 cells
[5] = molecular target: KLRC1/KLRD1 heterodimer expressed on CT26 cells (UniProt P26715); test: FACS (FIG. 17D)
[6] = molecular target: KLRC1/KLRD1 heterodimer expressed on CT26 cells (UniProt P26715); test: FACS on CT26 cells, 5 ug/mL, anti-human Fc-PE
[7] = molecular target: KIR3DL2 expressed on cells (human) (UniProt P43630); test: FACS, hFc-tagged proteins on CT26 cells expressing the receptor, MFI normalized to Thy1.1
[8] = molecular target: KIR3DL1 expressed on CT26 cells (human) (UniProt P43629); test: as above
[9] = molecular target: KLRC1/KLRD1 heterodimer expressed on CT26 cells (UniProt P26715); test: FACS on receptor-expressing cells (FIG. 17E)
[10] = molecular target: KIR3DL2 expressed on cells (human) (UniProt P43630); test: FACS on receptor-expressing cells (FIG. 17E)
[11] = molecular target: KIR3DL1 expressed on CT26 cells (human) (UniProt P43629); test: FACS on receptor-expressing cells (FIG. 17E)
[12] = molecular target: KLRC1/KLRD1 heterodimer expressed on CT26 cells (UniProt P26715); test: FACS cell-cell conjugate assay, CFSE-labelled MC38-IGSF8 mixed 1:1 with Far Red-labelled CT26-KLRC1+KLRD1

Measured: binding

B1: recombinant human IGSF8 extracellular domain tagged by a human Fc region (IGSF8-hFc) (Fc fusion, not shown: a dimerising Fc or GST)
chain: REVLVPEGPLYRVAGTAVSISCNVTGYEGPAQQNFEWFLYRPEAPDTALGIVSTKDTQFSYAVFKSRVVAGEVQVQRLQGDAVVLKIARLQAQDAGIYECHTPSTDTRYLGSYSGKVELRVLPDVLQVSAAPPGPRGRQAPTSPPRMTVHEGQELALGCLARTSTQKHTHLAVSFGRSVPEAPVGRSTLQEVVGIRSDLAVEAGAPYAERLAAGELRLGKEGTDRYRMVVGGAQAGDAGTYHCTAAEWIQDPDGSWAQIAEKRAVLAHVDVQTLSSQLAVTVGPGERRIGPGEPLELLCNVSGALPPAGRHAAYSVGWEMAPAGAPGPGRLVAQLDTEGVGSLGPGYEGRHIAMEKVASRTYRLRLEAARPGDAGTYRCLAKAYVRGSGTRLREAASARSRPLPVHVREEGVVLEAVAWLAGGTVYRGETASLLCNISVRGGPPGLRLAASWWVERPEDGELSSVPAQLVGGVGQDGVAELGVRPGGGPVSVELVGPRSHRLRLHSLGPEDEGVYHCAPSAWVQHADYSWYQAGSARSGPVTVYPYMHALDT
modifications: biotin label in Examples 17, 18 and 28 (site not given)
binds: [1] | [2] | [3] | [4] | [5] | [6]

B2: D1 domain of IGSF8 (recombinant protein) (ligand, human, UniProt Q969P0 28-149, looked up)
chain: REVLVPEGPLYRVAGTAVSISCNVTGYEGPAQQNFEWFLYRPEAPDTALGIVSTKDTQFSYAVFKSRVVAGEVQVQRLQGDAVVLKIARLQAQDAGIYECHTPSTDTRYLGSYSGKVELRVL
binds: [2] | [7] | [8] | [9] | [10] | [11]

B3: human IGSF8 expressed on the cell surface (ligand, UniProt Q969P0 28-613, looked up)
chain: REVLVPEGPLYRVAGTAVSISCNVTGYEGPAQQNFEWFLYRPEAPDTALGIVSTKDTQFSYAVFKSRVVAGEVQVQRLQGDAVVLKIARLQAQDAGIYECHTPSTDTRYLGSYSGKVELRVLPDVLQVSAAPPGPRGRQAPTSPPRMTVHEGQELALGCLARTSTQKHTHLAVSFGRSVPEAPVGRSTLQEVVGIRSDLAVEAGAPYAERLAAGELRLGKEGTDRYRMVVGGAQAGDAGTYHCTAAEWIQDPDGSWAQIAEKRAVLAHVDVQTLSSQLAVTVGPGERRIGPGEPLELLCNVSGALPPAGRHAAYSVGWEMAPAGAPGPGRLVAQLDTEGVGSLGPGYEGRHIAMEKVASRTYRLRLEAARPGDAGTYRCLAKAYVRGSGTRLREAASARSRPLPVHVREEGVVLEAVAWLAGGTVYRGETASLLCNISVRGGPPGLRLAASWWVERPEDGELSSVPAQLVGGVGQDGVAELGVRPGGGPVSVELVGPRSHRLRLHSLGPEDEGVYHCAPSAWVQHADYSWYQAGSARSGPVTVYPYMHALDTLFVPLLVGTGVALVTGATVLGTITCCFMKRLRKR
binds: [12]
